Reference: patent publication US11795204B2 (Zealand Pharma A/S, priority 2012, dated 2023)

Test: general procedure: Fmoc solid-phase peptide synthesis; Tentagel S PHB-Thr(tBu); HATU or COMU with DIPEA
Conditions: whole synthesis, analytical HPLC

H-HSQGTFTSDYSRYLESARAEDFVKWLEST-OH
final HPLC purity: 99%
